# From patent US11390543B2, “Sterilization method” (NEWSOUTH INNOVATIONS PTY LIMITED, priority 2017, dated 2022)
# System: MS2 bacteriophage (ATCC 15597-B1)
# Test: Zeta potential of MS2 viruses in 0.17 M NaCl solution with different gas bubbles
# Type: physicochemical
# Details: virus 10^8 per ml, gases at 200° C. (combustion gas 60° C.)
row,SMILES,Zeta potential values
1,[Ar] [Argon],−12.2
2,O=C=O [Carbon dioxide],−6.2
3,N#N [Nitrogen],−10.8
4,O=O [Oxygen],−12.6
